From EP0469084B1 (MOUNT SINAI SCHOOL OF MEDICINE OF THE CITY UNIVERSITY OF …, priority 1989, dated 1995) come the findings set out here.

*: point of attachment. Mts = Cc1cc(C)c(S(=O)(=O)*)c(C)c1; Boc = CC(C)(C)OC(=O)*; Bn = c1ccc(C*)cc1; NHNH2 = NN*

A short description of the first data set: general procedure: solution-phase peptide synthesis; azide fragment condensation; p-nitrophenyl active esters; DCC/HOBt. The settings on record: coupling step.
With “Boc-Gly-Val-Cys(PMB)-Ser(Bzl)-Leu-Trp(Mts)-Gln-Leu-Glu(OBzl)-Asn-Tyr(Bzl)-Cys(PMB)-Asn·OBzl”, the step yield is 82%.
The same measure, in the same setting: with “Z-Gly-Ile-Val-Glu(OBu^t)-Gln-Cys(PMB)-Cys(PMB)-Ala-Gly-Val-Cys(PMB)-Ser(Bzl)-Leu-Trp(Mts)-Gln-Leu-Glu(OBzl)-Asn-Tyr(Bzl)-Cys(PMB)-Asn·OBzl” the figure was 76%.
On the same count and under the same terms, the figure for “Boc-Ser(Bzl)-Leu-Trp(Mts)-Gln-Leu-Glu(OBzl)-Asn-Tyr(Bzl)-Cys(PMB)-Asn·OBzl” is 38%; for Boc-Ser(Bzl)-Leu-Trp(Mts)-Gln-Leu·OMe it is 85%; for Boc-Leu-Trp(Mts)-Gln-Leu·OMe it is 71%.
Boc-Asn-Tyr(Bzl)-Cys(PMB)-Asn·OBzl had a step yield of 64%.
“Boc-Glu(OBzl)-Asn-Tyr(Bzl)-Cys(PMB)-Asn·OBzl” gave a step yield of 81%.

The same data set, now with this note: late stage modification step.
Boc-S(Bn)LW(Mts)QL-NHNH2 yielded a step yield of 94%.
